This passage reports binding results from PMC5128727, “Metalloprotease SPRTN/DVC1 Orchestrates Replication-Coupled DNA-Protein Crosslink Repair”.

Amino acid sequences for entries named in this document (tags omitted).
UniProt P11387: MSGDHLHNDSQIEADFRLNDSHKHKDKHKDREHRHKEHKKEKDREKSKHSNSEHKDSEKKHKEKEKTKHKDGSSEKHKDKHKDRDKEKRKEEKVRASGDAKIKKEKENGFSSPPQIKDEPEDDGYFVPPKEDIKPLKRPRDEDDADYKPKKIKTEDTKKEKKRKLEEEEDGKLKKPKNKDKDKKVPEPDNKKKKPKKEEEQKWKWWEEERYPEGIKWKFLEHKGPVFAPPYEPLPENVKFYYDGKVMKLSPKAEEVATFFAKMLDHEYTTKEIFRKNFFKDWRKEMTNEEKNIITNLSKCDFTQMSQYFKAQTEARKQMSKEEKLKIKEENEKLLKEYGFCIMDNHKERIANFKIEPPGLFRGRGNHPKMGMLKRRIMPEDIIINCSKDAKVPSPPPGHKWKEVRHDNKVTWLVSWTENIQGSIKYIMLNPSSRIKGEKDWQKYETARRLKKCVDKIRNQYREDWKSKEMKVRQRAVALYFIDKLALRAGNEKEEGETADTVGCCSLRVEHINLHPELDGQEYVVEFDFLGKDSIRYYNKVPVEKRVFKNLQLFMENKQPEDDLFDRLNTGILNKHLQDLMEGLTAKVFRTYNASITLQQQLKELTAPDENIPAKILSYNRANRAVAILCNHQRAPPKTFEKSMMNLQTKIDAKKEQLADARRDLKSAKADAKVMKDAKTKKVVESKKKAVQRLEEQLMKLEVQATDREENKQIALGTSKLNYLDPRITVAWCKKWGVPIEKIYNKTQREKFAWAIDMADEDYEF
UniProt P49736: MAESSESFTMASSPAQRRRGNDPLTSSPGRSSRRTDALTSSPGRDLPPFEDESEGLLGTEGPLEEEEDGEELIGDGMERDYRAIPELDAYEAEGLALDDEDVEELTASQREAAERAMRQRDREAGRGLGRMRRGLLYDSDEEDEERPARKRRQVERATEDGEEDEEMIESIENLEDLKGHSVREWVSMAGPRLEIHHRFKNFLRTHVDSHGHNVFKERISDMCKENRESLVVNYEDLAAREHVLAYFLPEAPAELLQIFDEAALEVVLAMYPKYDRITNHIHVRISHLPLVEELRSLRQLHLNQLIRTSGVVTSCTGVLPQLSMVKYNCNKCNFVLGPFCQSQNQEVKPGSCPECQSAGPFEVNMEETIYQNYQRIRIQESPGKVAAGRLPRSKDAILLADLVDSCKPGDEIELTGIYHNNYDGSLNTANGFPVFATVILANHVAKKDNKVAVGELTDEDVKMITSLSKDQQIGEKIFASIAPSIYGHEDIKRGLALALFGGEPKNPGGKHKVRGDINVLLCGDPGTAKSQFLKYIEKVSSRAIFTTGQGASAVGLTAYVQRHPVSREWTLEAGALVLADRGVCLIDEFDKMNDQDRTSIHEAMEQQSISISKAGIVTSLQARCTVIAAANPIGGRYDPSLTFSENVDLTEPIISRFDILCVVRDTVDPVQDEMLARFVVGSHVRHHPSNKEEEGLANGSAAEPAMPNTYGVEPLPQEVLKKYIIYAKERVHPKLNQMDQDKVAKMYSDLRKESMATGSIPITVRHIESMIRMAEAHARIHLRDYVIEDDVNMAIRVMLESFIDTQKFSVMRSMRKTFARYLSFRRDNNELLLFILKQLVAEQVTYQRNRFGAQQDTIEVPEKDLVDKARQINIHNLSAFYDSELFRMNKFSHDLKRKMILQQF

Results are given in words; binding and its absence hold for the method and conditions named. In cells and extracts the contact can be indirect. Some results given as binding are weak or reduced against the parent protein; the word gives no strength. Sequences can lack the tags named with a protein.

The labels stand for the following.
B1: minichromosome maintenance complex (MCM) subunit 6 (protein, UniProt Q14566 1-821)
chain: MDLAAAAEPGAGSQHLEVRDEVAEKCQKLFLDFLEEFQSSDGEIKYLQLAEELIRPERNTLVVSFVDLEQFNQQLSTTIQEEFYRVYPYLCRALKTFVKDRKEIPLAKDFYVAFQDLPTRHKIRELTSSRIGLLTRISGQVVRTHPVHPELVSGTFLCLDCQTVIRDVEQQFKYTQPNICRNPVCANRRRFLLDTNKSRFVDFQKVRIQETQAELPRGSIPRSLEVILRAEAVESAQAGDKCDFTGTLIVVPDVSKLSTPGARAETNSRVSGVDGYETEGIRGLRALGVRDLSYRLVFLACCVAPTNPRFGGKELRDEEQTAESIKNQMTVKEWEKVFEMSQDKNLYHNLCTSLFPTIHGNDEVKRGVLLMLFGGVPKTTGEGTSLRGDINVCIVGDPSTAKSQFLKHVEEFSPRAVYTSGKASSAAGLTAAVVRDEESHEFVIEAGALMLADNGVCCIDEFDKMDVRDQVAIHEAMEQQTISITKAGVKATLNARTSILAAANPISGHYDRSKSLKQNINLSAPIMSRFDLFFILVDECNEVTDYAIARRIVDLHSRIEESIDRVYSLDDIRRYLLFARQFKPKISKESEDFIVEQYKHLRQRDGSGVTKSSWRITVRQLESMIRLSEAMARMHCCDEVQPKHVKEAFRLLNKSIIRVETPDVNLDQEEEIQMEVDEGAGGINGHADSPAPVNGINGYNEDINQESAPKASLRLGFSEYCRISNLIVLHLRKVEEEEDESALKRSELVNWYLKEIESEIDSEEELINKKRIIEKVIHRLTHYDHVLIELTQAGLKGSTEGSESYEEDPYLVVNPNYLLED

For the experiment, the target named is T1, SPRTN-Strep-Strep-His (SSH) (human) (UniProt Q9H040).
T1 sequence: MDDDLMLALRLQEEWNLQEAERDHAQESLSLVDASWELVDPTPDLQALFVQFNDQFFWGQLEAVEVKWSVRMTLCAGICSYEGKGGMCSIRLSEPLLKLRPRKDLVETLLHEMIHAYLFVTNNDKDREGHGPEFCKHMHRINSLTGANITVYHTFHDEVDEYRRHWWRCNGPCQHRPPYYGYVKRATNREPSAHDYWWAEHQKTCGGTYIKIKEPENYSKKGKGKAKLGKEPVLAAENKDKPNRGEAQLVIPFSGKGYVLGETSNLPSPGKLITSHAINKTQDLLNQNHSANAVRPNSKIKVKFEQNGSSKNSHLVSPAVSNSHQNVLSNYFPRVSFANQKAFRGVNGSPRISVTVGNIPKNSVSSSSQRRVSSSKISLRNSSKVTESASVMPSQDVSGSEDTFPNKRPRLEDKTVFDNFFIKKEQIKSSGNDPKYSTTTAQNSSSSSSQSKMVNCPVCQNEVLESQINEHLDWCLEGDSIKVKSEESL
The experiment is described as follows: co-IP; SPRTN-SSH isolated from total HEK293 cell extracts over Streptactin sepharose under high salt and detergent conditions; partners detected by blot.
Turning to “Topoisomerase 1 (from UniProt P11387 1-765)”, the binding result was “binds”.
The value for “minichromosome maintenance complex (MCM) subunit 2 (from UniProt P49736 1-904)” was “binds”.
As for B1, the binding entry is “binds”.
